From PubChem BioAssay AID248 (DTP/NCI, 2004)
The list shows only some results of the screen, not a fair sample: it gathers tests that were run many times, whatever their T/C, doses with no T/C, and many T/C values between a quarter and a half above the control. Further doses and runs are listed elsewhere. T/C gives the treated animals as a percentage of the vehicle group. Some entries give survivors of the animals treated and no T/C: the source files T/C as zero there, which appears to mark a toxic dose or a test without result, not a measured value. Some doses without a T/C left all or most animals alive at the check, yet need not have been tolerated: survival well below the control is almost never listed, so the zero probably covers shortened survival too. Survivors were counted at the toxicity check, usually on the fifth day, unless a day is given; later deaths do not show. Schedules are NCI's codes, taken here to give the interval after Q, in days (D) or hours (H), and the number of doses after X. Additions like (4×) say how often a value occurs here. Some schedules carry Z or #; the key to these is not given. Some structures stand for samples that the source files as different forms (salt, stereo form or complex); doses refer to the form tested. For survival time, this PubChem deposit counts one and a half times the control or more as active, and values a quarter to a half above the control carry no call in these data; other NCI protocols may use other cut-offs. Some entries were tested several times; the values are given in rising order. Some T/C values carry the count of animals alive at the toxicity check (mostly the fifth day); without a count, all were alive then.

Tested on: L1210 leukemia ip in BDF1 mice, survival T/C
Experiment: NCI In Vivo Anticancer Drug Screen. Data for tumor model L1210 Leukemia (intraperitoneal) in B6D2F1 (BDF1) mice
Conditions: T/C endpoint: mean survival time, higher T/C = longer survival
[1] = dose: 200.0 mg/kg/injection, schedule: Q04DX003 (ip), vehicle: saline with Tween-80
[2] = dose: 50.0 mg/kg/injection, schedule: Q01DX009 (ip), vehicle: Klucel (hydroxypropylcellulose) (HPC)
[3] = dose: 150.0 mg/kg/injection, schedule: Q01DX001 (ip), vehicle: other
[4] = dose: 200.0 mg/kg/injection, schedule: Q04DX003 (ip), vehicle: Klucel (hydroxypropylcellulose) (HPC)
[5] = dose: 300.0 mg/kg/injection, schedule: Q01DX001 (ip), vehicle: other
[6] = dose: 400.0 mg/kg/injection, schedule: Q04DX003 (ip), vehicle: Klucel (hydroxypropylcellulose) (HPC)
[7] = dose: 400.0 mg/kg/injection, schedule: Q01DX001 (ip), vehicle: saline
[8] = dose: 400.0 mg/kg/injection, schedule: Q01DX009 (ip), vehicle: saline with Tween-80
[9] = dose: 200.0 mg/kg/injection, schedule: Q04DX002 (ip), vehicle: saline with Tween-80
[10] = dose: 400.0 mg/kg/injection, schedule: Q04DX002 (ip), vehicle: saline with Tween-80
[11] = dose: 400.0 mg/kg/injection, schedule: Q04DX003 (ip), vehicle: saline with Tween-80
[12] = dose: 200.0 mg/kg/injection, schedule: Q01DX009 (ip), vehicle: saline

In the case of `CC(C)OC(=O)C1(N)CCCC1`, the T/C (dose: 45.0 mg/kg/injection, schedule: Q01DX Z (ip), vehicle: saline) is reported as 133 % of control, the T/C (dose: 60.0 mg/kg/injection, schedule: Q01DX Z (ip), vehicle: other) is reported as 132 % of control and the T/C (dose: 66.0 mg/kg/injection, schedule: Q01DX Z (ip), vehicle: saline) is reported as 126 and 138 % of control. The T/C (dose: 90.0 mg/kg/injection, schedule: Q01DX Z (ip), vehicle: other) was 143 % of control, the T/C (dose: 100.0 mg/kg/injection, schedule: Q01DX Z (ip), vehicle: carboxymethylcellulose (CMC)) was 126 % of control and the T/C (dose: 100.0 mg/kg/injection, schedule: Q01DX Z (ip), vehicle: saline) was 136, 138, 147 % of control. For the same compound, the T/C (dose: 135.0 mg/kg/injection, schedule: Q01DX Z (ip), vehicle: other) was 143 % of control, the T/C (dose: 150.0 mg/kg/injection, schedule: Q01DX Z (ip), vehicle: saline) was 126 and 136 % of control and the T/C (dose: 225.0 mg/kg/injection, schedule: Q01DX Z (ip), vehicle: saline) was 134 % of control. The T/C (dose: 336.0 mg/kg/injection, schedule: Q01DX Z (ip), vehicle: saline) was 127 % of control [5 of 6 alive].
In the case of `Clc1ccc(N/N=C(\Oc2ccccc2)c2ccccc2)cc1`, the survivor count [1] is reported as 4 of 4.
With `N#CCN1C(=O)c2ccccc2C1=O` the survivor count [2] was 0 of 6, the survivor count (dose: 100.0 mg/kg/injection, schedule: Q04DX003 (ip), vehicle: Klucel (hydroxypropylcellulose) (HPC)) was 0 of 6 and the survivor count [3] was 2 of 6. For the same compound, the survivor count [4] was 0 of 6, the survivor count [5] was 0 of 6 and the survivor count [6] was 0 of 6.
`CCCCCCCCCCCCNC(=O)Nc1ccc(Cl)c(Cl)c1` was tested, and the survivor count [7] was 6 of 6.
With `COc1cc(/C=N/N2C(=O)CSC2=S)ccc1OCc1ccccc1` the survivor count [8] was 6 of 6.
For `Cc1c([N+](=O)[O-])cc(C(C)(C)C)c(O)c1[N+](=O)[O-]`, the survivor count (dose: 25.0 mg/kg/injection, schedule: Q01DX009 (ip), vehicle: saline with Tween-80) was 0 of 6, the survivor count (dose: 50.0 mg/kg/injection, schedule: Q04DX002 (ip), vehicle: Klucel (hydroxypropylcellulose) (HPC)) was 1 of 3 and the survivor count (dose: 50.0 mg/kg/injection, schedule: Q04DX002 (ip), vehicle: saline with Tween-80) was 0 of 3. The survivor count (dose: 100.0 mg/kg/injection, schedule: Q04DX002 (ip), vehicle: Klucel (hydroxypropylcellulose) (HPC)) was 0 of 3, the survivor count (dose: 100.0 mg/kg/injection, schedule: Q04DX002 (ip), vehicle: saline with Tween-80) was 0 of 3 and the survivor count (dose: 200.0 mg/kg/injection, schedule: Q04DX002 (ip), vehicle: Klucel (hydroxypropylcellulose) (HPC)) was 0 of 3. The survivor count [9] was 0 of 3, the survivor count (dose: 400.0 mg/kg/injection, schedule: Q04DX002 (ip), vehicle: Klucel (hydroxypropylcellulose) (HPC)) was 0 of 3 and the survivor count [10] was 0 of 3.
For `CN(C)C=Nc1ccc(Cl)c(Cl)c1`, the survivor count [1] was 0 of 6 and the survivor count [11] was 0 of 6.
`C[N+]1(C2CCC3CCC2C3O)CCOCC1` (stereo unspecified) was tested, and the survivor count [12] was 2 of 6 and the survivor count (dose: 400.0 mg/kg/injection, schedule: Q04DX003 (ip), vehicle: saline) was 0 of 6 (2×).
`NC(N)=NCCCCCCCCCCN=C(N)N` was tested, and the survivor count (dose: 75.0 mg/kg/injection, schedule: Q01DX001 (ip), vehicle: other) was 0 of 6, the survivor count [3] was 0 of 6 and the survivor count [5] was 0 of 6.
In the case of `COc1cc2c(cc1OC)C1C(=CCC3c4cc(OC)c(OC)cc4CC[N+]31C)C=C2` (stereo unspecified), the survivor count (dose: 100.0 mg/kg/injection, schedule: Q04DX003 (ip), vehicle: saline with Tween-80) is reported as 1 of 6, the survivor count [1] is reported as 0 of 6 and the survivor count [11] is reported as 0 of 6.
`Clc1ccc(CC[PH+]2CC=CC2)cc1.Clc1ccc(CC[PH+]2CC=CC2)cc1.[Cl][Ni][Cl]` was tested, and the T/C [9] was 127 % of control and the survivor count [10] was 0 of 3.
For `CCCCCCCCCCCCCC(=O)OC1CCC2(C)C(=CCC3C2CCC2(C)C(C(C)CCCC(C)C)CCC32)C1` (stereo unspecified), the survivor count (dose: 100.0 mg/kg/injection, schedule: Q01DX001 (ip), vehicle: Klucel (hydroxypropylcellulose) (HPC)) was 3 of 3.
`COc1cc(OC)c(/C=C/c2ccc3ccccc3[n+]2C)c(OC)c1` was tested, and the survivor count (dose: 5.0 mg/kg/injection, schedule: Q04DX003 (ip), vehicle: saline with Tween-80) was 0 of 6, the survivor count (dose: 10.0 mg/kg/injection, schedule: Q04DX003 (ip), vehicle: saline with Tween-80) was 1 of 6 and the survivor count (dose: 20.0 mg/kg/injection, schedule: Q04DX003 (ip), vehicle: saline with Tween-80) was 1 of 6.
`CCCCCCN(CCCCCC)C(F)(F)C(=O)Nc1ccc(S(=O)(=O)c2ccc(NC(=O)C(F)(F)N(CCCCCC)CCCCCC)cc2)cc1` was tested, and the survivor count (dose: 100.0 mg/kg/injection, schedule: Q01DX001 (ip), vehicle: saline) was 0 of 4, the survivor count (dose: 200.0 mg/kg/injection, schedule: Q01DX001 (ip), vehicle: saline) was 0 of 4 and the survivor count [7] was 0 of 4.
In the case of `O=[N+]([O-])c1cccc(SNc2cccc(Cl)c2)c1`, the survivor count (dose: 200.0 mg/kg/injection, schedule: Q01DX009 (ip), vehicle: saline with Tween-80) is reported as 6 of 6 and the survivor count [8] is reported as 0 of 5.
In the case of `O=CNc1ncnn1C(=S)NCc1ccccc1`, the survivor count [12] is reported as 0 of 6.
In the case of `COc1ccc(C2C=C(C)Oc3c2c(=O)oc2ccccc32)cc1OC` (stereo unspecified), the survivor count (dose: 100.0 mg/kg/injection, schedule: Q01DX009 (ip), vehicle: water) is reported as 1 of 6, the survivor count (dose: 200.0 mg/kg/injection, schedule: Q01DX009 (ip), vehicle: water) is reported as 1 of 6 and the survivor count (dose: 400.0 mg/kg/injection, schedule: Q01DX009 (ip), vehicle: water) is reported as 0 of 6.
In the case of `COc1ccc(Cl)cc1/C=C\C=N\NC(=O)C[N+](C)(C)C`, the survivor count (dose: 60.0 mg/kg/injection, schedule: Q01DX001 (ip), vehicle: carboxymethylcellulose (CMC)) is reported as 2 of 6, the survivor count (dose: 75.0 mg/kg/injection, schedule: Q01DX001 (ip), vehicle: carboxymethylcellulose (CMC)) is reported as 0 of 6 and the survivor count (dose: 150.0 mg/kg/injection, schedule: Q01DX001 (ip), vehicle: carboxymethylcellulose (CMC)) is reported as 0 of 6. For the same compound, the survivor count (dose: 300.0 mg/kg/injection, schedule: Q01DX001 (ip), vehicle: carboxymethylcellulose (CMC)) was 0 of 6.
`NC(N)=NC(N)=Nc1ccc(-c2ccccc2)cc1` was tested, and the survivor count (dose: 100.0 mg/kg/injection, schedule: Q01DX001 (ip), vehicle: saline with Tween-80) was 1 of 3, the survivor count (dose: 200.0 mg/kg/injection, schedule: Q01DX001 (ip), vehicle: saline with Tween-80) was 1 of 3 and the survivor count (dose: 400.0 mg/kg/injection, schedule: Q01DX001 (ip), vehicle: saline with Tween-80) was 0 of 3.
`CC(C)(C)C1CCC(Cl)C(O)C1` (stereo unspecified) was tested, and the survivor count (dose: 400.0 mg/kg/injection, schedule: Q01DX009 (ip), vehicle: saline) was 3 of 6.
In the case of `CC(=O)Oc1c(OC(C)=O)c(C=O)c2c(OC(C)=O)c(-c3c(C)cc4c(C(C)C)c(OC(C)=O)c(OC(C)=O)c(C=O)c4c3OC(C)=O)c(C)cc2c1C(C)C`, the survivor count [2] is reported as 4 of 6, the survivor count (dose: 100.0 mg/kg/injection, schedule: Q01DX009 (ip), vehicle: Klucel (hydroxypropylcellulose) (HPC)) is reported as 2 of 6 and the survivor count [4] is reported as 4 of 6. For the same compound, the survivor count [6] was 0 of 6.
In the case of `[Cl][Pt+2][Cl].[NH-]c1ccc(Cl)cc1[NH-]`, the T/C (dose: 25.0 mg/kg/injection, schedule: Q04DX003 (ip), vehicle: saline) is reported as 126 % of control and the T/C (dose: 50.0 mg/kg/injection, schedule: Q04DX003 (ip), vehicle: saline) is reported as 134 and 138 % of control.
With `Clc1ccc(C(Cl)(Cl)Cl)cc1Cl` the survivor count [6] was 0 of 6.
In the case of `C[n+]1ccccc1/C=N/Nc1ccccc1`, the survivor count [3] is reported as 2 of 6 and the survivor count [5] is reported as 1 of 6.
In the case of `C/C(=C/C1CC(=O)OC1=O)CC(C)(C)C` (stereo unspecified), the survivor count (dose: 500.0 mg/kg/injection, schedule: Q01DX Z (ip), vehicle: methylcellulose (MC)) is reported as 3 of 6.
